The supplement of paper PMC8728848
The list shows a part of the results.

Key:
Test in all cases: glycan array binding signal (z-score within array); higher = stronger binding
Details in all cases: glycan notation: IUPAC condensed, linker removed
[1] = molecular target: GlcNAc(b1-3)Gal(b1-4)GlcNAc(b1-3)Gal(b1-4)GlcNAc(b1-2)Man(a1-3)[GlcNAc(b1-3)Gal(b1-4)GlcNAc(b1-3)Gal(b1-4)GlcNAc(b1-2)Man(a1-6)]Man(b1-4)GlcNAc(b1-4)[Fuc(a1-6)]GlcNAc
In short: (§1)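 The binding signal is a Z-score computed within each array. Data were drawn from 3228 arrays in the Consortium for Functional Glycomics database, restricted to those with a known protein sequence. Scores were averaged over arrays of the same protein sequence at different concentrations or buffers, and over linkers, and negative values can be taken as non-binding.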

[2] = molecular target: GlcNAc(b1-3)Gal(b1-4)GlcNAc(b1-3)Gal(b1-4)GlcNAc(b1-2)[GlcNAc(b1-3)Gal(b1-4)GlcNAc(b1-3)Gal(b1-4)GlcNAc(b1-6)]Man(a1-6)[GlcNAc(b1-3)Gal(b1-4)GlcNAc(b1-3)Gal(b1-4)GlcNAc(b1-2)Man(a1-3)]Man(b1-4)GlcNAc(b1-4)[Fuc(a1-6)]GlcNAc
In short: as §1

[3] = molecular target: GlcNAc(b1-3)Gal(b1-4)GlcNAc(b1-3)Gal(b1-4)GlcNAc(b1-3)Gal(b1-4)GlcNAc(b1-2)Man(a1-3)[GlcNAc(b1-3)Gal(b1-4)GlcNAc(b1-3)Gal(b1-4)GlcNAc(b1-3)Gal(b1-4)GlcNAc(b1-2)Man(a1-6)]Man(b1-4)GlcNAc(b1-4)GlcNAc
In short: as §1

[4] = molecular target: GlcNAc(b1-3)Gal(b1-4)GlcNAc(b1-3)Gal(b1-4)GlcNAc(b1-3)Gal(b1-4)GlcNAc(b1-2)Man(a1-3)[GlcNAc(b1-3)Gal(b1-4)GlcNAc(b1-3)Gal(b1-4)GlcNAc(b1-3)Gal(b1-4)GlcNAc(b1-2)Man(a1-6)]Man(b1-4)GlcNAc(b1-4)[Fuc(a1-6)]GlcNAc
In short: as §1

[5] = molecular target: GlcNAc(b1-3)Gal(b1-4)GlcNAc(b1-3)Gal(b1-4)GlcNAc(b1-3)Gal(b1-4)GlcNAc(b1-2)[GlcNAc(b1-3)Gal(b1-4)GlcNAc(b1-3)Gal(b1-4)GlcNAc(b1-3)Gal(b1-4)GlcNAc(b1-6)]Man(a1-6)[GlcNAc(b1-3)Gal(b1-4)GlcNAc(b1-3)Gal(b1-4)GlcNAc(b1-3)Gal(b1-4)GlcNAc(b1-2)Man(a1-3)]Man(b1-4)GlcNAc(b1-4)[Fuc(a1-6)]GlcNAc
In short: as §1

[6] = molecular target: GlcNAc(b1-3)Gal(b1-4)GlcNAc(b1-3)Gal(b1-4)GlcNAc(b1-3)Gal(b1-4)GlcNAc(b1-3)Gal(b1-4)GlcNAc(b1-2)Man(a1-3)[GlcNAc(b1-3)Gal(b1-4)GlcNAc(b1-3)Gal(b1-4)GlcNAc(b1-3)Gal(b1-4)GlcNAc(b1-3)Gal(b1-4)GlcNAc(b1-2)Man(a1-6)]Man(b1-4)GlcNAc(b1-4)GlcNAc
In short: as §1

[7] = molecular target: GlcNAc(b1-3)Gal(b1-4)GlcNAc(b1-3)Gal(b1-4)GlcNAc(b1-3)Gal(b1-4)GlcNAc(b1-3)Gal(b1-4)GlcNAc(b1-2)Man(a1-3)[GlcNAc(b1-3)Gal(b1-4)GlcNAc(b1-3)Gal(b1-4)GlcNAc(b1-3)Gal(b1-4)GlcNAc(b1-3)Gal(b1-4)GlcNAc(b1-2)Man(a1-6)]Man(b1-4)GlcNAc(b1-4)[Fuc(a1-6)]GlcNAc
In short: as §1

[8] = molecular target: GlcNAc(b1-3)Gal(b1-4)GlcNAc(b1-3)Gal(b1-4)GlcNAc(b1-3)Gal(b1-4)GlcNAc(b1-3)Gal(b1-4)GlcNAc(b1-2)[GlcNAc(b1-3)Gal(b1-4)GlcNAc(b1-3)Gal(b1-4)GlcNAc(b1-3)Gal(b1-4)GlcNAc(b1-3)Gal(b1-4)GlcNAc(b1-6)]Man(a1-6)[GlcNAc(b1-3)Gal(b1-4)GlcNAc(b1-3)Gal(b1-4)GlcNAc(b1-3)Gal(b1-4)GlcNAc(b1-3)Gal(b1-4)GlcNAc(b1-2)Man(a1-3)]Man(b1-4)GlcNAc(b1-4)[Fuc(a1-6)]GlcNAc
In short: as §1

[9] = molecular target: GlcNAc(b1-3)Gal(b1-4)GlcNAc(b1-3)Gal(b1-4)GlcNAc(b1-3)GalNAc
In short: as §1

[10] = molecular target: GlcNAc(b1-3)Gal(b1-4)GlcNAc(b1-3)GalNAc
In short: as §1

[11] = molecular target: GlcNAc(b1-3)Gal(b1-4)GlcNAc(b1-3)[GlcNAc(b1-3)Gal(b1-4)GlcNAc(b1-3)]GalNAc
In short: as §1

[12] = molecular target: GlcNAc(b1-3)Gal(b1-4)GlcNAc(b1-6)[Gal(b1-3)]GalNAc
In short: as §1

[13] = molecular target: GlcNAc(b1-3)Gal(b1-4)GlcNAc(b1-6)[GlcNAc(b1-3)Gal(b1-3)]GalNAc
In short: as §1

[14] = molecular target: GlcNAc(b1-3)Gal(b1-4)GlcNAc(b1-6)[GlcNAc(b1-3)]Gal(b1-4)GlcNAc
In short: as §1

GlcNAc(b1-3)GalNAc = molecular target: GlcNAc(b1-3)GalNAc
In short: as §1

GlcNAc(b1-3)Man = molecular target: GlcNAc(b1-3)Man
In short: as §1

[15] = molecular target: GlcNAc(b1-3)[GlcNAc(b1-4)][GlcNAc(b1-6)]GlcNAc
In short: as §1

[16] = molecular target: GlcNAc(b1-3)[GlcNAc(b1-6)]Gal(b1-4)GlcNAc
In short: as §1

[17] = molecular target: GlcNAc(b1-3)[GlcNAc(b1-6)]GalNAc
In short: as §1

[18] = molecular target: GlcNAc(b1-4)Gal(b1-4)GlcNAc
In short: as §1

GlcNAc(b1-4)GlcNAc = molecular target: GlcNAc(b1-4)GlcNAc
In short: as §1

[19] = molecular target: GlcNAc(b1-4)GlcNAc(b1-4)GlcNAc
In short: as §1

[20] = molecular target: GlcNAc(b1-4)GlcNAc(b1-4)GlcNAc(b1-4)GlcNAc(b1-4)GlcNAc
In short: as §1

[21] = molecular target: GlcNAc(b1-4)GlcNAc(b1-4)GlcNAc(b1-4)GlcNAc(b1-4)GlcNAc(b1-4)GlcNAc
In short: as §1

[22] = molecular target: GlcNAc(b1-4)[GlcNAc(b1-6)]GalNAc
In short: as §1

[23] = molecular target: GlcNAc(b1-6)Gal(b1-4)GlcNAc
In short: as §1

GlcNAc(b1-6)GalNAc = molecular target: GlcNAc(b1-6)GalNAc
In short: as §1

[24] = molecular target: GlcNAc6S(b1-3)Gal(b1-4)GlcNAc
In short: as §1

Kdn(a2-3)Gal(b1-3)GalNAc = molecular target: Kdn(a2-3)Gal(b1-3)GalNAc
In short: as §1

Kdn(a2-3)Gal(b1-3)GlcNAc = molecular target: Kdn(a2-3)Gal(b1-3)GlcNAc
In short: as §1

Kdn(a2-3)Gal(b1-4)Glc = molecular target: Kdn(a2-3)Gal(b1-4)Glc
In short: as §1

Kdn(a2-3)Gal(b1-4)GlcNAc = molecular target: Kdn(a2-3)Gal(b1-4)GlcNAc
In short: as §1

[25] = molecular target: Kdn(a2-3)Gal(b1-4)[Fuc(a1-3)]GlcNAc
In short: as §1

Kdn(a2-6)Gal(b1-4)GlcNAc = molecular target: Kdn(a2-6)Gal(b1-4)GlcNAc
In short: as §1

[26] = molecular target: Man(a1-2)Man(a1-2)Man(a1-3)Man
In short: as §1

[27] = molecular target: Man(a1-2)Man(a1-2)Man(a1-6)[Man(a1-3)]Man
In short: as §1

Man(a1-2)Man(a1-3)Man = molecular target: Man(a1-2)Man(a1-3)Man
In short: as §1

[28] = molecular target: Man(a1-2)Man(a1-3)[Man(a1-2)Man(a1-6)]Man
In short: as §1

B1: Clec18Av1 (Homo sapiens), A5D8T8 (protein)
chain: MLHPETSPGRGHLLAVLLALLGTAWAEVWPPQLQEQAPMAGALNRKESFLLLSLHNRLRSWVQPPAADMRRLDWSDSLAQLAQARAALCGTPTPSLASGLWRTLQVGWNMQLLPAGLVSFVEVVSLWFAEGQRYSHAAGECARNATCTHYTQLVWATSSQLGCGRHLCSAGQAAIEAFVCAYSPRGNWEVNGKTIVPYKKGAWCSLCTASVSGCFKAWDHAGGLCEVPRNPCRMSCQNHGRLNISTCHCHCPPGYTGRYCQVRCSLQCVHGRFREEECSCVCDIGYGGAQCATKVHFPFHTCDLRIDGDCFMVSSEADTYYRARMKCQRKGGVLAQIKSQKVQDILAFYLGRLETTNEVIDSDFETRNFWIGLTYKTAKDSFRWATGEHQAFTSFAFGQPDNHGFGNCVELQASAAFNWNDQRCKTRNRYICQFAQEHISRWGPGS
- glycan array binding signal (z-score) [1]: -0.74
- glycan array binding signal (z-score) [2]: -0.075
- glycan array binding signal (z-score) [3]: 1.23
- glycan array binding signal (z-score) [4]: 1.17
- glycan array binding signal (z-score) [5]: -0.715
- glycan array binding signal (z-score) [6]: -0.769
- glycan array binding signal (z-score) [7]: -0.077
- glycan array binding signal (z-score) [8]: 2.69
- glycan array binding signal (z-score) [9]: -0.551
- glycan array binding signal (z-score) [10]: -0.797
- glycan array binding signal (z-score) [11]: 0.596
- glycan array binding signal (z-score) [12]: -0.033
- glycan array binding signal (z-score) [13]: -0.805
- glycan array binding signal (z-score) [14]: -0.865
- glycan array binding signal (z-score) (GlcNAc(b1-3)GalNAc): -0.475
- glycan array binding signal (z-score) (GlcNAc(b1-3)Man): -0.013
- glycan array binding signal (z-score) [15]: -0.811
- glycan array binding signal (z-score) [16]: -0.503
- glycan array binding signal (z-score) [17]: -0.808
- glycan array binding signal (z-score) [18]: -0.845
- glycan array binding signal (z-score) (GlcNAc(b1-4)GlcNAc): -0.326
- glycan array binding signal (z-score) [19]: -0.82
- glycan array binding signal (z-score) [20]: -0.866
- glycan array binding signal (z-score) [21]: -0.556
- glycan array binding signal (z-score) [22]: -0.241
- glycan array binding signal (z-score) [23]: 1.6
- glycan array binding signal (z-score) (GlcNAc(b1-6)GalNAc): -0.158
- glycan array binding signal (z-score) [24]: 1.53
- glycan array binding signal (z-score) (Kdn(a2-3)Gal(b1-3)GalNAc): -0.238
- glycan array binding signal (z-score) (Kdn(a2-3)Gal(b1-3)GlcNAc): -0.701
- glycan array binding signal (z-score) (Kdn(a2-3)Gal(b1-4)Glc): -0.816
- glycan array binding signal (z-score) (Kdn(a2-3)Gal(b1-4)GlcNAc): 0.233
- glycan array binding signal (z-score) [25]: 0.16
- glycan array binding signal (z-score) (Kdn(a2-6)Gal(b1-4)GlcNAc): 2.58
- glycan array binding signal (z-score) [26]: -0.848
- glycan array binding signal (z-score) [27]: -0.856
- glycan array binding signal (z-score) (Man(a1-2)Man(a1-3)Man): -0.573
- glycan array binding signal (z-score) [28]: -0.859
